For some assays here: At least one read-out could not be matched to a standard name with certainty. For some assays here: At least one compound was matched to its structure with a doubt left.
What was measured:
NMDA receptor [1] = experiment: Equilibrium binding of [³H]TCP to well-washed rat brain cortical membranes; details: in the presence of HU-211 10 »M; 2-100 nM [³H]TCP; 1 »M glutamate and 1 »M glycine (control 27 nM)
NMDA receptor [2] = details: comparison statement; cited from earlier work

In the case of CCCCCCC(C)(C)c1cc(O)c2c(c1)OC(C)(C)[C@H]1CC=C(CO)C[C@H]21 [HU-211, (+)-(3S,4S)-1,1-dimethylheptyl homolog of 7-hydroxy-Δ⁶-tetrahydrocannabinol], the “dissociation constant (Kd) for [³H]TCP” value (NMDA receptor [1]) is reported as 26 nM.
For NC(CCCP(=O)(O)O)C(=O)O (centres unmarked) [AP-5, aminophosphovalerate], the “[³H]TCP binding in the absence of glutamate and glycine (basal binding)” value (NMDA receptor [2]) is given as “strongly inhibits”.
